Data taken from publication PMC10924143.

Protein sequences, listed by entry. Tags and fused reporters are not part of them.
UniProt Q9UH03: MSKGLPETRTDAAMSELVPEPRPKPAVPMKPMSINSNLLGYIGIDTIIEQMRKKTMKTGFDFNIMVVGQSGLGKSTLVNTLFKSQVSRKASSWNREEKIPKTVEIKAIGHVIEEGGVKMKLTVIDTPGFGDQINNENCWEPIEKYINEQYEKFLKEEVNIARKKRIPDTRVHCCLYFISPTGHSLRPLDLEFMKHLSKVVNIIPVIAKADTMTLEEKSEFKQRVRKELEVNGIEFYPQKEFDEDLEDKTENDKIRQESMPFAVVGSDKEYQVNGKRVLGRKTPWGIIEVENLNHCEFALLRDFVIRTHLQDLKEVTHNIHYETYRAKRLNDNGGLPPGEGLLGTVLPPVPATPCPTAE

T1: EGFP-tagged SEPT6 (co-expressed with inactive RID-CA) (human) (UniProt Q14141)
T1 sequence: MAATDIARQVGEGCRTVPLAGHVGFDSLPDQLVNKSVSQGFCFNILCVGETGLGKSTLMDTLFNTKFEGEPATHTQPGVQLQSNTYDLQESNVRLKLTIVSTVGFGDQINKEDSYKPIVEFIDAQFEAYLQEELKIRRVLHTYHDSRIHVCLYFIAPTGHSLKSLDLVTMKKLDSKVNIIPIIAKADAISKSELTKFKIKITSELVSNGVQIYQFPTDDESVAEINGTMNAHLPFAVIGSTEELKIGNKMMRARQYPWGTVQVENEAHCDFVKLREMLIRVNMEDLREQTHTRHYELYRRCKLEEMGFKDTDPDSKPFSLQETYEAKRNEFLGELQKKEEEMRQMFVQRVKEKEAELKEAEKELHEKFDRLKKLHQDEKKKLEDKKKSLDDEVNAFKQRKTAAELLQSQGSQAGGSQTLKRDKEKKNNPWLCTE

T2: EGFP-tagged SEPT6 (co-expressed with inactive RID-CA) (human), Q14141
T2 chain: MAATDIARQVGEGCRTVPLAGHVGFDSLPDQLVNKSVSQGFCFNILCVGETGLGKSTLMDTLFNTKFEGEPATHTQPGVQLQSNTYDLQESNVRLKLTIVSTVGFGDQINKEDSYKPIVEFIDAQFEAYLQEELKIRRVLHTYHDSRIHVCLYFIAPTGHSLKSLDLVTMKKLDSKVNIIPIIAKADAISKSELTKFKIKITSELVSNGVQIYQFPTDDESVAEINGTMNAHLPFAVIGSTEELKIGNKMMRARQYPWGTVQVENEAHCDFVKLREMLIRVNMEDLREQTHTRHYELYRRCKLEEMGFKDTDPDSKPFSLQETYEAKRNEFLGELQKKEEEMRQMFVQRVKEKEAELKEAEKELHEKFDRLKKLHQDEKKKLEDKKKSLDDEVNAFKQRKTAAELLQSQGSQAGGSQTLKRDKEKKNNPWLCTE


Legend:
Assay in all cases: affinity purification with mass spectrometry; HEK293T co-transfected with EGFP-tagged SEPT6 or SEPT6-4KR and RID-WT or RID-CA for 20 h; lysis in 1% Triton X-100, 150 mM NaCl, 50 mM Tris-HCl pH 7.4; anti-EGFP nanobody agarose beads; in-gel digestion; label-free quantification against vector control, three biological replicates
[1] = target: T1, EGFP-tagged SEPT6 (co-expressed with inactive RID-CA) (human)
[2] = target: EGFP-tagged SEPT6 quadruple mutant SEPT6-4KR (co-expressed with RID-WT) (human) (UniProt Q14141)
[3] = target: T2, EGFP-tagged SEPT6 (co-expressed with …); conditions: remark: other sources report otherwise

Molecule	binding [1]	binding [2]	binding [3]
endogenous SEPT8, Q92599 1-483 (protein) MAATDLERFSNAEPEPRSLSLGGHVGFDSLPDQLVSKSVTQGFSFNILCVGETGIGKSTLMNTLFNTTFETEEASHHEACVRLRPQTYDLQESNVQLKLTIVDAVGFGDQINKDESYRPIVDYIDAQFENYLQEELKIRRSLFDYHDTRIHVCLYFITPTGHSLKSLDLVTMKKLDSKVNIIPIIAKADTISKSELHKFKIKIMGELVSNGVQIYQFPTDDEAVAEINAVMNAHLPFAVVGSTEEVKVGNKLVRARQYPWGVVQVENENHCDFVKLREMLIRVNMEDLREQTHSRHYELYRRCKLEEMGFQDSDGDSQPFSLQETYEAKRKEFLSELQRKEEEMRQMFVNKVKETELELKEKERELHEKFEHLKRVHQEEKRKVEEKRRELEEETNAFNRRKAAVEALQSQALHATSQQPLRKDKDKKNRSDIGAHQPGMSLSSSKVMMTKASVEPLNCSSWWPAIQCCSCLVRDATWREGFL	–	–	binds
endogenous SEPT10, Q9P0V9 1-454 (protein) MASSEVARHLLFQSHMATKTTCMSSQGSDDEQIKRENIRSLTMSGHVGFESLPDQLVNRSIQQGFCFNILCVGETGIGKSTLIDTLFNTNFEDYESSHFCPNVKLKAQTYELQESNVQLKLTIVNTVGFGDQINKEESYQPIVDYIDAQFEAYLQEELKIKRSLFTYHDSRIHVCLYFISPTGHSLKTLDLLTMKNLDSKVNIIPVIAKADTVSKTELQKFKIKLMSELVSNGVQIYQFPTDDDTIAKVNAAMNGQLPFAVVGSMDEVKVGNKMVKARQYPWGVVQVENENHCDFVKLREMLICTNMEDLREQTHTRHYELYRRCKLEEMGFTDVGPENKPVSVQETYEAKRHEFHGERQRKEEEMKQMFVQRVKEKEAILKEAERELQAKFEHLKRLHQEERMKLEEKRRLLEEEIIAFSKKKATSEIFHSQSFLATGSNLRKDKDRKNSNFL	–	–	binds
endogenous SEPT10 (protein, UniProt Q9P0V9 1-454) MASSEVARHLLFQSHMATKTTCMSSQGSDDEQIKRENIRSLTMSGHVGFESLPDQLVNRSIQQGFCFNILCVGETGIGKSTLIDTLFNTNFEDYESSHFCPNVKLKAQTYELQESNVQLKLTIVNTVGFGDQINKEESYQPIVDYIDAQFEAYLQEELKIKRSLFTYHDSRIHVCLYFISPTGHSLKTLDLLTMKNLDSKVNIIPVIAKADTVSKTELQKFKIKLMSELVSNGVQIYQFPTDDDTIAKVNAAMNGQLPFAVVGSMDEVKVGNKMVKARQYPWGVVQVENENHCDFVKLREMLICTNMEDLREQTHTRHYELYRRCKLEEMGFTDVGPENKPVSVQETYEAKRHEFHGERQRKEEEMKQMFVQRVKEKEAILKEAERELQAKFEHLKRLHQEERMKLEEKRRLLEEEIIAFSKKKATSEIFHSQSFLATGSNLRKDKDRKNSNFL	–	binds	–

Continued, values first:

binding [1]	binding [2]	binding [3]	Molecule
binds	binds	–	endogenous SEPT3 (from UniProt Q9UH03 1-358)
binds	binds	–	endogenous SEPT11 (protein, UniProt Q9NVA2 1-429) MAVAVGRPSNEELRNLSLSGHVGFDSLPDQLVNKSTSQGFCFNILCVGETGIGKSTLMDTLFNTKFESDPATHNEPGVRLKARSYELQESNVRLKLTIVDTVGFGDQINKDDSYKPIVEYIDAQFEAYLQEELKIKRSLFNYHDTRIHACLYFIAPTGHSLKSLDLVTMKKLDSKVNIIPIIAKADTIAKNELHKFKSKIMSELVSNGVQIYQFPTDEETVAEINATMSVHLPFAVVGSTEEVKIGNKMAKARQYPWGVVQVENENHCDFVKLREMLIRVNMEDLREQTHTRHYELYRRCKLEEMGFKDTDPDSKPFSLQETYEAKRNEFLGELQKKEEEMRQMFVMRVKEKEAELKEAEKELHEKFDLLKRTHQEEKKKVEDKKKELEEEVNNFQKKKAAAQLLQSQAQQSGAQQTKKDKDKKNASFT
–	binds	–	endogenous SEPT8 (protein, UniProt Q92599 1-483) MAATDLERFSNAEPEPRSLSLGGHVGFDSLPDQLVSKSVTQGFSFNILCVGETGIGKSTLMNTLFNTTFETEEASHHEACVRLRPQTYDLQESNVQLKLTIVDAVGFGDQINKDESYRPIVDYIDAQFENYLQEELKIRRSLFDYHDTRIHVCLYFITPTGHSLKSLDLVTMKKLDSKVNIIPIIAKADTISKSELHKFKIKIMGELVSNGVQIYQFPTDDEAVAEINAVMNAHLPFAVVGSTEEVKVGNKLVRARQYPWGVVQVENENHCDFVKLREMLIRVNMEDLREQTHSRHYELYRRCKLEEMGFQDSDGDSQPFSLQETYEAKRKEFLSELQRKEEEMRQMFVNKVKETELELKEKERELHEKFEHLKRVHQEEKRKVEEKRRELEEETNAFNRRKAAVEALQSQALHATSQQPLRKDKDKKNRSDIGAHQPGMSLSSSKVMMTKASVEPLNCSSWWPAIQCCSCLVRDATWREGFL
binds	binds	–	endogenous SEPT5 (protein, UniProt Q99719 1-369) MSTGLRYKSKLATPEDKQDIDKQYVGFATLPNQVHRKSVKKGFDFTLMVAGESGLGKSTLVHSLFLTDLYKDRKLLSAEERISQTVEILKHTVDIEEKGVKLKLTIVDTPGFGDAVNNTECWKPITDYVDQQFEQYFRDESGLNRKNIQDNRVHCCLYFISPFGHGLRPVDVGFMKALHEKVNIVPLIAKADCLVPSEIRKLKERIREEIDKFGIHVYQFPECDSDEDEDFKQQDRELKESAPFAVIGSNTVVEAKGQRVRGRLYPWGIVEVENQAHCDFVKLRNMLIRTHMHDLKDVTCDVHYENYRAHCIQQMTSKLTQDSRMESPIPILPLPTPDAETEKLIRMKDEELRRMQEMLQRMKQQMQDQ

These are yes or no findings as the source states them, for the method shown. Binding seen in cells or lysates may run through a third protein. A yes stands for co-enrichment or nearness to the bait. Other partners may have been found. For some of these results: Tags and fused reporters may be left off the sequences shown.
